# How the values were obtained:
# [1] = Nasal administration of diazepam and midazolam preparations in two healthy volunteers; settings: human, blood, other: intranasal, 5 mg
# Method: Approximately 0.5 ml (2.5 mg) was dripped into each nostril over a period of 30 seconds.
# clinical = settings: human, plasma, inhaled or intranasal, 5 mg
smiles,measurement,setting,value
"Cc1ncc2n1-c1ccc(Cl)cc1C(c1ccccc1F)=NC2 [MDZ, midazolam]",half-life,[1],1.54 h
same,half-life,clinical,2.2 h
